{
  "source": "PubChem BioAssay AID540256",
  "about": "(National Center for Advancing Translational Sciences (NCATS), 2011)",
  "note": "In all, about 300,000 compounds went through this assay and about 3,700 (1.2%) were called active. The inconclusive results got no clear call from the source; some entries with a clear call stand among them for comparison. Calls follow the shape of the full dose curve; tested in HEK293 cells. Potencies of inconclusive entries are doubtful fits and often do not repeat. Potency is read from the fitted curve at half-maximal effect.",
  "data": [
    {"test": "qHTS for Inhibitors of binding or entry into cells for Lassa Virus; also: nearly all actives have a fitted effect of over 50% in size", "settings": "Lassa virus pseudotype entry inhibition, cell reporter; series mostly up to 37.9 µM", "values": [
      {"smiles": "CCCCn1c(N)c(N(CC(C)C)C(=O)C2=NN(c3cc(C)ccc3C)C(=O)CC2)c(=O)[nH]c1=O", "Potency": "inactive"},
      {"smiles": "O=C(NC1=NCCCCC1)c1cccc2ccccc12", "Potency": "inconclusive: 11.2 µM [activator, partial curve, poor fit]"},
      {"smiles": "COc1ccc(CN(C)CC(O)COC(c2ccccc2)c2ccccc2)c(OC)c1OC", "note": "(stereo not given)", "Potency": "inconclusive: 20 µM [inhibitor, partial curve, poor fit]"},
      {"smiles": "Cc1cccc(Cc2cnc(NC(=O)c3ccc(C)o3)s2)c1", "Potency": "inactive"},
      {"smiles": "COc1ccc(C(=O)OCC(=O)NC(=O)NCc2ccccc2)cc1[N+](=O)[O-]", "Potency": "inconclusive: 4.47 µM [inhibitor, full curve, poor fit]"},
      {"smiles": "CCS(=O)(=O)c1ncc(Cl)c(C(=O)Nc2ccccc2)n1", "Potency": "inconclusive: 28.2 µM [inhibitor, single point]"},
      {"smiles": "O=C(Nc1nc(COc2ccccc2)cs1)C1CCC1", "Potency": "inconclusive: 14.6 µM [inhibitor, partial curve, poor fit]"},
      {"smiles": "Cc1cccc(CCNC(=O)C2CCN(S(=O)(=O)c3c(C)noc3C)CC2)c1", "Potency": "inconclusive: 18.3 µM [inhibitor, single point]"},
      {"smiles": "CC(C)c1ccccc1NC(=O)c1ccco1", "Potency": "inactive"},
      {"smiles": "CC1CCCN(CC(=O)Nc2ccc(S(=O)(=O)NC3CCCCC3)cc2)C1", "note": "(stereo not given)", "Potency": "inconclusive: 0.146 µM [inhibitor, full curve, poor fit]"},
      {"smiles": "O=c1oc2ccccc2n1Cc1ccccc1", "Potency": "inactive"},
      {"smiles": "COc1cc(Cl)c(NS(=O)(=O)c2cc(-c3cc(C)no3)ccc2OC)c(OC)c1", "Potency": "inactive"},
      {"smiles": "O=C(CN1C(=O)c2ccccc2C1=O)Nc1ccccc1C(=O)NC1CCCCCC1", "Potency": "inconclusive: 11.2 µM [activator, partial curve]"},
      {"smiles": "CCCCN(CC)CCNC(=O)C1CCCN(c2ncnc3onc(C)c23)C1", "note": "(stereo not given)", "Potency": "inactive"},
      {"smiles": "CCc1cccc(C)c1NC(=S)NCCc1c(C)[nH]c2ccc(C)cc12", "Potency": "inconclusive: 20.6 µM [inhibitor, partial curve, poor fit]"},
      {"smiles": "CC[n+]1c(/C=C/Nc2ccccc2)oc2ccccc21", "Potency": "inconclusive: 29.1 µM [inhibitor, single point]"},
      {"smiles": "Cc1cccc(N2CCN(C(c3ccc(N(C)C)cc3)c3nnnn3C(C)(C)C)CC2)c1C", "note": "(stereo not given)", "Potency": "inconclusive: 1.64 µM [inhibitor, partial curve, poor fit]"},
      {"smiles": "O=[N+]([O-])c1nn(-c2ccc3c(c2)OCCO3)n(O)c1=NC1CCCC1", "Potency": "inactive"},
      {"smiles": "CCOc1ccc(/C=N/NC(=O)c2ccc(Cn3cc([N+](=O)[O-])cn3)o2)cc1", "Potency": "inconclusive: 0.891 µM [activator, single point]"},
      {"smiles": "Cc1ccc(N(CC(=O)Nc2cc(C)ccc2C)S(=O)(=O)c2c(C)noc2C)cc1", "Potency": "inactive"},
      {"smiles": "Cc1ccc(N=C2NC(=O)CC(C(=O)Nc3cc(C(F)(F)F)ccc3Cl)S2)cc1", "note": "(stereo not given)", "Potency": "inactive"},
      {"smiles": "COC(=O)c1c(NC(=O)Cc2coc3ccc(C(C)C)cc23)sc2c1CCC2", "Potency": "inconclusive: 3.98 µM [inhibitor, partial curve, poor fit]"},
      {"smiles": "Cc1ccc(NC(=O)CSc2nnc(C)n2CC2CCCO2)cc1", "note": "(stereo not given)", "Potency": "inactive"},
      {"smiles": "CC(=NNC(=S)Nc1ccc(C)cc1)c1ccccn1", "Potency": "inconclusive: 0.355 µM [inhibitor, full curve]"},
      {"smiles": "CN(Cc1nccn1C)C(=O)CCc1nnc(CCC2CCCCC2)o1", "Potency": "inactive"},
      {"smiles": "Cc1ccc(NC(=O)Nc2ccccc2OCc2cc(=O)n3ccccc3n2)c(Cl)c1", "Potency": "inactive"},
      {"smiles": "Cc1cccc(C(=O)n2nc(-c3cccnc3)nc2NCc2ccccc2)c1", "Potency": "inactive"},
      {"smiles": "c1csc(-c2cnc3ccccc3n2)c1", "Potency": "inconclusive: 9.2 µM [activator, partial curve]"},
      {"smiles": "Cc1ccc(C(=O)NCCc2ccc(S(N)(=O)=O)cc2)cc1-n1cnc2cccnc21", "Potency": "inactive"},
      {"smiles": "N=C1/C(=C/c2cccn2CCOc2ccccc2)C(=O)N=C2SC=C(c3ccccc3)N12", "Potency": "inconclusive: 8.2 µM [inhibitor, partial curve, poor fit]"},
      {"smiles": "CS(=O)(=O)c1cnc(-c2ccccc2)nc1Oc1ccc(Cl)cc1", "Potency": "inactive"},
      {"smiles": "CC(=O)c1cccc(NS(=O)(=O)c2cc(-c3cnc(C4CC4)o3)ccc2C)c1", "Potency": "inconclusive: 3.55 µM [inhibitor, partial curve, poor fit]"},
      {"smiles": "O=C(C1CCN(S(=O)(=O)c2ccccc2F)CC1)N1CCCC1", "Potency": "inconclusive: 11.2 µM [inhibitor, single point]"},
      {"smiles": "COc1cc2c(cc1NC(=O)c1cc(-c3ccccn3)nc3ccccc13)oc1ccccc12", "Potency": "inactive"},
      {"smiles": "O=C(CCc1ccccc1)N1N=C(c2ccncc2)CC1(O)C(F)(F)F", "note": "(stereo not given)", "Potency": "inconclusive: 28.2 µM [inhibitor, partial curve, poor fit]"},
      {"smiles": "CCCCOc1ccc(C2=CSC3=NCCN23)cc1[N+](=O)[O-]", "Potency": "inactive"},
      {"smiles": "O=C(NCc1n[nH]c(=S)n1-c1cccc(C(F)(F)F)c1)c1ccco1", "Potency": "inactive"},
      {"smiles": "Cc1ccc(C)c(C(=O)OCC(=O)N(C)c2ccccc2)c1", "Potency": "inconclusive: 11.2 µM [inhibitor, partial curve, poor fit]"},
      {"smiles": "CC(C)(C)c1cc(CN2CCN(CCO)CC2)cc(C(C)(C)C)c1O", "Potency": "inactive"},
      {"smiles": "COc1ccc(CC(=O)Nc2cccc(/C(C)=N/NC(=O)c3cccc([N+](=O)[O-])c3)c2)cc1", "Potency": "active: 11.2 µM"},
      {"smiles": "O=c1oc2c3c(ccc2c2ccccc12)OCN(Cc1ccccc1Cl)C3", "Potency": "inactive"},
      {"smiles": "COc1ccc(-c2nnc(SCC(=O)N(C)C3CCCCC3)o2)cc1OC", "Potency": "inactive"},
      {"smiles": "CN1CCN(S(=O)(=O)c2ccc(Cc3ccc(S(=O)(=O)N4CCN(C)CC4)cc3)cc2)CC1", "Potency": "inconclusive: 25.1 µM [inhibitor, partial curve, poor fit]"},
      {"smiles": "COc1ccc(C2C(C#N)=C(N)Oc3cc4c(cc32)OCO4)cc1", "note": "(stereo not given)", "Potency": "inconclusive: 20.6 µM [inhibitor, single point]"},
      {"smiles": "CCN(CC(O)COc1ccc(OCC(O)CN(CC)C2CCCCC2)cc1)C1CCCCC1", "note": "(stereo not given)", "Potency": "inconclusive: 11.2 µM [inhibitor, partial curve, poor fit]"},
      {"smiles": "COC(=O)C(O)(c1ccc(NC(=S)NC(=O)c2ccc(Cl)cc2Cl)cc1)C(F)(F)F", "note": "(stereo not given)", "Potency": "inconclusive: 10 µM [inhibitor, partial curve]"},
      {"smiles": "CC(=O)c1ccc(S(=O)(=O)N(C)CC(=O)Nc2cccc(S(=O)(=O)N3CCCC3)c2)cc1", "Potency": "inactive"},
      {"smiles": "CCOC(=O)c1c(C)[nH]c(C)c1S(=O)(=O)NCCN1CCN(c2ccccc2F)CC1", "Potency": "inconclusive: 7.08 µM [inhibitor, partial curve, poor fit]"},
      {"smiles": "CN1CCC(NCCC(c2ccc(F)cc2)c2ccc(Cl)cc2)CC1", "note": "(stereo not given)", "Potency": "inconclusive: 12.6 µM [inhibitor, partial curve, poor fit]"},
      {"smiles": "COc1cc(/C=N/n2cnnc2)ccc1OCc1ccc(C)cc1", "Potency": "inconclusive: 0.112 µM [activator, full curve, poor fit]"},
      {"smiles": "Cc1ccc(NC(=O)CN2C(=O)c3ccccc3Sc3ccc(C(=O)N4CCOCC4)cc32)cc1C", "Potency": "inconclusive: 0.562 µM [activator, full curve, poor fit]"},
      {"smiles": "COc1ccccc1OCCNCC(O)COc1cccc2[nH]c3ccccc3c12", "note": "(stereo not given)", "Potency": "inconclusive: 13 µM [inhibitor, partial curve, poor fit]"},
      {"smiles": "O=C1Nc2ccccc2C1Cc1ccc(Br)cc1", "note": "(stereo not given)", "Potency": "inactive"},
      {"smiles": "CC(=O)Nc1nonc1-c1nc2ccccc2n1C", "Potency": "inconclusive: 15.8 µM [activator, partial curve]"},
      {"smiles": "CCCc1cc(=O)oc2cc(C)c3c(C)coc3c12", "Potency": "inactive"},
      {"smiles": "C=CCSc1nnc(-c2cc3c(-c4ccccc4)nn(C)c3s2)n1C", "Potency": "inconclusive: 11.2 µM [inhibitor, partial curve, poor fit]"},
      {"smiles": "COc1ccc(OCC(=O)Nc2cc(-c3nc4ccccc4o3)ccc2Cl)cc1", "Potency": "inconclusive: 31.6 µM [activator, single point]"},
      {"smiles": "COc1ccc(OCCSc2n[nH]c(N)n2)cc1", "Potency": "inactive"},
      {"smiles": "CCCCn1c(N(CCOC(C)=O)C(C)=O)nc2ccccc21", "Potency": "inconclusive: 7.3 µM [activator, single point]"},
      {"smiles": "CC1CC(C)CN(C(=O)C(Cc2ccccc2)n2cccc2)C1", "note": "(stereo not given)", "Potency": "inactive"},
      {"smiles": "CC1CCN(C(=O)c2cc(-c3ccc(Cl)c(Cl)c3)on2)CC1", "Potency": "inconclusive: 18.3 µM [activator, single point]"},
      {"smiles": "Cc1ccc(-c2csc(NC(=O)CSc3nc4ccccc4o3)n2)cc1", "Potency": "inconclusive: 15.8 µM [activator, partial curve, poor fit]"},
      {"smiles": "COC(=O)c1ccccc1NC(=O)Cn1c(=O)n(-c2ccc(C)cc2)c(=O)c2ccccc21", "Potency": "inactive"},
      {"smiles": "CC1=NN(c2ccccc2)C(=O)/C1=C/c1c(O)[nH]c(=S)[nH]c1=O", "Potency": "inactive"},
      {"smiles": "O=C(c1cc(COc2ccc(F)cc2F)on1)N1C[C@H]2CC[C@H]1C2", "Potency": "inconclusive: 35.5 µM [inhibitor, single point]"},
      {"smiles": "CCC(=O)Nc1ccc(-c2nc3ncccc3o2)cc1C", "Potency": "inactive"},
      {"smiles": "CCOCCCNC(=O)C(c1ccc(Cl)cc1)N(Cc1ccc2c(c1)OCO2)C(=O)c1ccc(NC(C)=O)cc1", "note": "(stereo not given)", "Potency": "inconclusive: 35.5 µM [inhibitor, single point]"},
      {"smiles": "Cc1ccc(CNC(=O)c2ccc(N3Cc4ccccc4Oc4ncccc43)s2)cc1", "Potency": "inconclusive: 11.2 µM [inhibitor, partial curve, poor fit]"},
      {"smiles": "CCOc1ccc(C(=O)Nc2ccc(C(=O)OCc3cc(=O)n4c(C)csc4n3)cc2)cc1", "Potency": "inconclusive: 35.5 µM [inhibitor, single point]"},
      {"smiles": "O=C(c1ccccc1C(=O)N1CCN(c2ccccc2)CC1)N1CCN(c2ccccc2)CC1", "Potency": "inconclusive: 29.1 µM [inhibitor, single point]"}
    ]}
  ]
}
